# According to patent US20230079819A1, “COMPOUNDS AND USES THEREOF” (Foghorn Therapeutics Inc., priority 2019, published 2023):
# For at least one compound, name, drawing or mass did not settle the structure.
# Tests used:
# [1] = tested on: uveal melanoma cell line 92-1; assay: Inhibition of cell proliferation of uveal melanoma cell line 92-1; type: cell-based
# [2] = tested on: uveal melanoma cell line MP41; assay: Inhibition of cell proliferation of uveal melanoma cell line MP41; type: cell-based
structure (smiles),measurement,setting,value
Cn1cnc2c(F)c(Nc3ccc(Br)cc3Cl)c(C(=O)NOCCO)cc21 [Selumetinib],inhibition of cell proliferation,[1],inhibition of cell proliferation
same,inhibition of cell proliferation,[2],inhibition of cell proliferation
